Results on one molecule are retold here after patent US20180369403A1 (University of Texas, published 2018).

Chains of the proteins cited; added tags and fusions are not shown. Residues count along the entry.
UniProt Q9BXB1, residues 25-544: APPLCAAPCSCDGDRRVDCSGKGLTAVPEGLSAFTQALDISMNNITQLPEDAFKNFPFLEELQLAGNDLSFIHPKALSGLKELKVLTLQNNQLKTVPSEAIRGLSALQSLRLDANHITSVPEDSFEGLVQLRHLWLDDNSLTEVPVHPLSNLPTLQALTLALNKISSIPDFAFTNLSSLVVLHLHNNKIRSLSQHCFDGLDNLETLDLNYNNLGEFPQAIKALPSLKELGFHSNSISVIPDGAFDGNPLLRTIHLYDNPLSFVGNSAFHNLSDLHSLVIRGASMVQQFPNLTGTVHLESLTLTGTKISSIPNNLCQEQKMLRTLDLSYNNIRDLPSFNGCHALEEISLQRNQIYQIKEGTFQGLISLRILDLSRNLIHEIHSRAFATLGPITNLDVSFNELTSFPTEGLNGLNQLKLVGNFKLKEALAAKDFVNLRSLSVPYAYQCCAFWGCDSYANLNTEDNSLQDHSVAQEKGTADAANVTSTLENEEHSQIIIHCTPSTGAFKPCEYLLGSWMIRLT

In this test the target is LGR4-ECD (UniProt Q9BXB1). Put plainly: competition of 8D2 uptake in A549 cells by soluble LGR4-ECD.

No constants are given. Whether binding was seen depends on the method and setting. Some binding calls cover weakened binding; strength is not graded here.

B1: anti-LGR4 monoclonal antibody 8D2 (antibody, V domains shown)
VH: QVQLQQSGAELVKPGASVNLSCKTSGYTFSTSYMSWFKQIPGQTIEWVGLIYVGAGGPTYNQKFKGKASLTVDTSSSTAYMDLSSLTAEDSAVYFCARVRGYAMDAWGQGTSVTVSS
VL: DIVLTQSPATLSVTPGESVSLSCRASQDISTSIHWYQQKSNESPRLLIKYASQSISGIPSRFSGGGSGTDFTLTINRVESEDFSVYYCQQSYSLPVTFGSGTKLELKR
notes: also called mAb 8D2; LGR4-mAb-8D2
Regarding B1, the binding result is given as “binds”.
